# Measurements: PMC11530130, “Peripherally restricted PICK1 inhibitor mPD5 ameliorates pain behaviors in murine inflammatory and neuropathic pain models” (JCI Insight, 2024)
# Several values for one entry are separate records, joined by “and”; a condition that tells them apart may be missing. Equal values may be shown once. This continues a long series; more values of the same kind are listed elsewhere.
# Key:
# [1] = tested on: mice, CFA model of inflammatory pain; test: CFA model of inflammatory pain, von Frey, s.c. administration; type: in vivo, mouse; details: CFA dose range
# Description: Unless otherwise specified, wild type C57BL/6NRj mice (male and female, aged eight-weeks at the beginning of experiment) were used (Janvier, France). Animals were allowed at least seven days of habituation to the animal facility before initiation of experiment. Mice were group-housed in a temperature-controlled room, maintained on a 12/12hour light/dark cycle (lights on at 6 A.M) with free access to standard rodent chow (Altromin 1342 (Brogaarden, […]
# Drug administration and dosing for animal experiments.
# All compounds were diluted in PBS or saline (depending on control) and administered through different routes i.t. (7 μL/mouse)), i.p. (10 μL/g) or s.c. (10 μL/g)) as indicated. Doses of mPD5 were based on previous studies with TPD5 (6) with a subcutaneous dose-range included in the CFA studies further guiding dose selection for SNI, STZ and CIBP studies. Pregabalin dose was chosen based on previous experience from Phenotype Expertise (Marseilles, France). In the CIBP model, a dose of […] morphine was chosen to avoid hyperactivity, though known to provide only partial pain relief in this model. In remaining experiments, 5 mg/kg morphine was chosen, known to provide full pain relief, except for the conditioned place preference experiment, where 10 mg/kg was used instead in accordance with literature. […]
# µL of IS1 (internal standard in MeOH (Labetalol & tolbutamide & Verapamil & dexamethasone & glyburide & Celecoxib 100 ng/mL for each)) and the mixture was vortexed for 10 min at 800 rpm and centrifuged for 15 min at 3220 × g at 4 ℃. An aliquot of 65 µL supernatant was transferred to a clean 96-well plate and centrifuged for 5 min at 3220 × g at 4 ℃, then the supernatant was directly injected for LC-MS/MS analysis. Plasma half-lives were determined from three points in the elimination phase. In a separate experiment, biodistribution was assessed (plasma, CSF, spinal cord, whole brain) at two hours after single dose of 10 µmol/kg or one hour after last injection in the repeated administration paradigm (10 µmol/kg followed by four s.c. administrations of 2 µmol/kg with one hour between). At these times, plasma levels were similar between the two paradigms. Plasma, CSF, and tissue samples (kept at 4 ℃) were processed and analysed as described above.
# Concentration 10 µmol/kg: Wild type mice were habituated to the experimental room for a minimum of 60 min before initiation of the experiment. Female and male mice were run on separate days. Mice were injected s.c. with 10 μmol/kg mPD5 or sterile PBS directly before being placed in open field boxes (40 cm x 40 cm x 80 cm) for 2.5 hours with up to four mice in boxes at any one time. A video camera placed above the open field recorded the animals’ behaviour and Ethovision XT 13 (Noldus) was used to track the distance travelled by the […]
# Concentration 30 + 50 µmol/kg: Animals were habituated to the experimental room for a minimum of 60 min before initiation of the experiment. At initiation of experiment, the mice (all male) were injected subcutaneously (s.c.) with mPD5 (30 or 50 μmol/kg, pH adjusted to approximately 7 with 5 M NaOH) or 0.9 % saline (B.Braun, Germany) and left in their home cage for 60 min. After exactly one hour, the mice were placed in an open field (40 cm x 40 cm x 80 cm) for 60 min. A video camera placed above the open field recorded the animals’ […]
# animal. The experiment was run in cohort with Figure 2B+C of (9)).
# Induction of inflammatory pain (CFA model).
# Injury was induced on the right hind paw, whereas the contralateral left hind paw was used as internal control of the C57BL/6J male and female mice (Janvier, France). The inflammatory pain was induced by injection of 50 μL undiluted Complete Freund’s Adjuvant (CFA) (F5881, Sigma) unilaterally into the intraplantar surface of the right hind paw, whereas control mice were injected with the same amount of 0.9 % saline (B. Braun, Germany). All intraplantar injections were performed with an insulin needle (0.3 mL BD Micro-Fine) while the animal […]
# [2] = tested on: mice, spared nerve injury (SNI) model; test: SNI model 18 weeks after surgery, von Frey, sustained s.c. administration; type: in vivo, mouse; set-up: von Frey threshold, Fig 7C, individual mice: unit not given here
# Description: Repeated and sustained administration of mPD5 in the SNI model. […]
# For the first experiment with sustained administration of mPD5 (Figure 7C), the mice underwent a baseline von Frey reading as described in the “Mechanically-evoked pain (von Frey).”-section and SNI surgery as described in “Induction of neuropathic pain (SNI model).”-section. Approximately 18 weeks (125 days) after SNI surgery, hyperalgesia was confirmed with von Frey. On the same day, mice were injected s.c. with 10 μmol/kg mPD5 and evoked pain was tested again at 1 hour after injection. Then, mice were injected s.c. with either 2+2+2 μmol/kg mPD5 (group A) or PBS (group B) once an hour for 3 hours. At 4,5 hours after the 10 μmol/kg mPD5 injection paw withdrawal threshold was measured again followed by a s.c. injection of 2 μmol/kg mPD5 in all animals. The PWT was measured again at 6 hours +7 hours + 8 hours + 9 hours + 10 hours + 11 hours + 22 hours + 23 hours + 25 hours + 27 hours + 49 hours + 121 hours after the initial 10 μmol/kg mPD5 injection performed on day 125. […]
smiles,measurement,setting,value
"CCCCCCCCCCCCCC(=O)N(CCOCCOCCC(=O)N[C@@H](Cc1c[nH]cn1)C(=O)N[C@@H](Cc1c[nH]c2ccccc12)C(=O)N[C@@H](CC(C)C)C(=O)N[C@@H](CCCCN)C(=O)N[C@H](C(=O)O)C(C)C)CCOCCOCCC(=O)N[C@@H](Cc1c[nH]cn1)C(=O)N[C@@H](Cc1c[nH]c2ccccc12)C(=O)N[C@@H](CC(C)C)C(=O)N[C@@H](CCCCN)C(=O)N[C@H](C(=O)O)C(C)C [mPD5, myristoyl-NPEG4-(HWLKV)2]","paw withdrawal threshold (von Frey), individual mice","[1]; s.c. 2 μmol/kg, contralateral paw, 5 hrs post injection, listed as myr",1.4 (3×) and 1 (2×)
same,"paw withdrawal threshold (von Frey), individual mice","[1]; s.c. 2 μmol/kg, contralateral paw, 24 hrs post injection",1.4
same,"paw withdrawal threshold (von Frey), individual mice","[1]; s.c. 2 μmol/kg, ipsilateral paw, 24 hrs post injection, listed as myr",0.16 (3×) and 0.6 and 0.4
same,"paw withdrawal threshold (von Frey), individual mice","[1]; s.c. 10 μmol/kg, contralateral paw, 24 hrs post injection, listed as myr",1.4 (3×) and 1 (2×) and 2
same,"paw withdrawal threshold (von Frey), individual mice","[1]; s.c. 10 μmol/kg, ipsilateral paw, 24 hrs post injection, listed as myr",0.16 (5×) and 0.4
same,"paw withdrawal threshold (von Frey), individual mice","[1]; s.c. 50 μmol/kg, contralateral paw, 24 hrs post injection, listed as myr",1.4 (3×) and 2 and 1
same,"paw withdrawal threshold (von Frey), individual mice","[1]; s.c. 50 μmol/kg, ipsilateral paw, 5 hrs post injection, listed as myr",0.4
same,"paw withdrawal threshold (von Frey), individual mice","[1]; s.c. 50 μmol/kg, ipsilateral paw, 24 hrs post injection, listed as myr",0.07 and 0.16 and 0.4 (3×)
same,"von Frey threshold, contralateral paw, Fig 7C, individual mice","[2]; A-contra, time 1 post inj 1",1.4 (3×) and 1 (5×)
same,"von Frey threshold, contralateral paw, Fig 7C, individual mice","[2]; A-contra, time 4,5 post inj 1",1.4 (5×) and 1 (3×)
same,"von Frey threshold, contralateral paw, Fig 7C, individual mice","[2]; A-contra, time 6 post første inj og time 1 post sidste inj",1.4 (5×) and 1 (3×)
same,"von Frey threshold, contralateral paw, Fig 7C, individual mice","[2]; A-contra, time 7 post første inj og time 2 post sidste inj",2 (2×) and 1.4 (3×) and 1 (3×)
same,"von Frey threshold, contralateral paw, Fig 7C, individual mice","[2]; A-contra, time 8 post første inj og time 3 post sidste inj",1.4 (4×) and 1 (4×)
same,"von Frey threshold, contralateral paw, Fig 7C, individual mice","[2]; A-contra, time 49 post første inj og time 44 post sidste inj",1.4 (6×) and 1 (2×)
same,"von Frey threshold, contralateral paw, Fig 7C, individual mice","[2]; A-contra, time 121 post første inj og time 116 post sidste inj",1.4 (4×) and 1 (3×) and 2
same,"von Frey threshold, contralateral paw, Fig 7C, individual mice","[2]; B-contra, time 1 post inj 1",1.4 (6×) and 0.6 and 2
same,"von Frey threshold, contralateral paw, Fig 7C, individual mice","[2]; B-contra, time 4,5 post inj 1",1.4 (4×) and 1 (2×) and 2 (2×)
same,"von Frey threshold, contralateral paw, Fig 7C, individual mice","[2]; B-contra, time 6 post første inj og time 1 post sidste inj",1.4 (4×) and 2 (4×)
same,"von Frey threshold, contralateral paw, Fig 7C, individual mice","[2]; B-contra, time 7 post første inj og time 2 post sidste inj",1 (2×) and 1.4 (3×) and 2 (3×)
same,"von Frey threshold, contralateral paw, Fig 7C, individual mice","[2]; B-contra, time 8 post første inj og time 3 post sidste inj",1.4 (5×) and 2 (2×) and 1
same,"von Frey threshold, contralateral paw, Fig 7C, individual mice","[2]; B-contra, time 27 post første inj og time 22 post sidste inj",1 (2×) and 1.4 (4×) and 2 (2×)
same,"von Frey threshold, contralateral paw, Fig 7C, individual mice","[2]; B-contra, time 49 post første inj og time 44 post sidste inj",1.4 (4×) and 2 (2×) and 1 (2×)
same,"von Frey threshold, contralateral paw, Fig 7C, individual mice","[2]; B-contra, time 121 post første inj og time 116 post sidste inj",1.4 (3×) and 2 (3×) and 1 (2×)
same,"von Frey threshold, Fig 7C, individual mice","[2]; group A, time 1 post inj 1",1 and 1.4 and 0.4 and 0.6 (4×) and 2
same,"von Frey threshold, Fig 7C, individual mice","[2]; group A, time 4,5 post inj 1",0.6 (3×) and 1.4 and 0.4 and 1 (2×) and 2
same,"von Frey threshold, Fig 7C, individual mice","[2]; group A, time 6 post første inj og time 1 post sidste inj",2 and 1.4 and 1 (6×)
same,"von Frey threshold, Fig 7C, individual mice","[2]; group A, time 7 post første inj og time 2 post sidste inj",1.4 (4×) and 1 (2×) and 0.6 (2×)
same,"von Frey threshold, Fig 7C, individual mice","[2]; group A, time 8 post første inj og time 3 post sidste inj",1 (4×) and 1.4 (2×) and 0.6 (2×)
same,"von Frey threshold, Fig 7C, individual mice","[2]; group A, time 27 post første inj og time 22 post sidste inj",1.4 and 0.16 (2×) and 1
same,"von Frey threshold, Fig 7C, individual mice","[2]; group A, time 49 post første inj og time 44 post sidste inj",0.4 (4×) and 1.4 and 0.07 and 0.16 and 1
same,"von Frey threshold, Fig 7C, individual mice","[2]; group A, time 121 post første inj og time 116 post sidste inj",0.16 (2×) and 0.4 (4×) and 0.07 (2×)
same,"von Frey threshold, Fig 7C, individual mice","[2]; group B, time 1 post inj 1",2 and 1.4 (2×) and 0.6 and 0.16 and 1 (2×) and 0.4
same,"von Frey threshold, Fig 7C, individual mice","[2]; group B, time 4,5 post inj 1",1.4 (2×) and 0.6 and 0.16 (3×) and 0.4 and 0.07
same,"von Frey threshold, Fig 7C, individual mice","[2]; group B, time 6 post første inj og time 1 post sidste inj",1.4 (2×) and 0.16 (4×) and 1 and 0.4
same,"von Frey threshold, Fig 7C, individual mice","[2]; group B, time 7 post første inj og time 2 post sidste inj",1.4 (2×) and 0.6 and 0.07 (4×) and 1
same,"von Frey threshold, Fig 7C, individual mice","[2]; group B, time 8 post første inj og time 3 post sidste inj",2 and 0.4 (2×) and 0.07 (4×) and 0.16
same,"von Frey threshold, Fig 7C, individual mice","[2]; group B, time 49 post første inj og time 44 post sidste inj",0.16 (6×) and 0.07 and 0.04
same,"von Frey threshold, Fig 7C, individual mice","[2]; group B, time 121 post første inj og time 116 post sidste inj",0.4 and 0.16 (5×) and 0.07 (2×)
